Here are results for 1 substance from patent publication US9878054B2 (Tufts Medical Center, Inc., priority 2012, dated 2018).

The data set can be described thus: general procedure: Fmoc solid-phase peptide synthesis. The conditions noted are these: whole synthesis, reverse-phase HPLC; MALDI mass spectrometry, TFA salt (crude), exchanged with ammonium acetate.

For the substance palmitate-KKSRALF-NH2, the “final HPLC purity” value was 99.1%.
